Assay results as given in PubChem BioAssay AID330 (DTP/NCI, 2004).
The list shows only some results of the screen, not a fair sample: it covers a few groups of compounds. Other doses and runs of a compound may be missing. T/C is the treated group as % of the vehicle group. Where survival is the endpoint, the PubChem record calls one and a half times the control and up active, and a quarter to a half above the control has no call in these data; cut-offs in other NCI protocols can differ. Schedules are NCI's codes, taken here to give the interval after Q, in days (D) or hours (H), and the number of doses after X. Some entries were tested several times; their values stand side by side, smallest first.

Test system: P388 leukemia ip, CD2F1 mice, survival T/C
Assay: NCI In Vivo Anticancer Drug Screen. Data for tumor model P388 Leukemia (intraperitoneal) in CD2F1 (CDF1) mice
Conditions: T/C endpoint: median survival time, schedule: Q01DX009 (ip), vehicle: saline with Tween-80, higher T/C = longer survival

O=NN(CCSCCCl)C(=O)NC1CCCCC1
T/C (dose: 1.56 mg/kg/injection): 121 % of control | T/C (dose: 3.12 mg/kg/injection, evaluated on day 30): 133 and 141 % of control | T/C (dose: 3.12 mg/kg/injection, evaluated on day 35): 108 % of control | T/C (dose: 6.25 mg/kg/injection, evaluated on day 30): 151 and 165 % of control | T/C (dose: 6.25 mg/kg/injection, evaluated on day 35): 116 % of control | T/C (dose: 12.5 mg/kg/injection, evaluated on day 30): 169 % of control | T/C (dose: 12.5 mg/kg/injection, evaluated on day 35): 148 % of control | T/C (dose: 25.0 mg/kg/injection, evaluated on day 30): 223 % of control | T/C (dose: 25.0 mg/kg/injection, evaluated on day 35): 178 % of control | T/C (dose: 50.0 mg/kg/injection, evaluated on day 30): 98 % of control | T/C (dose: 50.0 mg/kg/injection, evaluated on day 35): 99 % of control
